PubChem BioAssay AID504791 – Drosophila RNAi Screening Center | 2011
Test: 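Genes of the fly required for silencing by miRNA, siRNA or endo-siRNA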 (primary screen). Cells: Drosophila S2-derived reporter cells. Reagents: long dsRNA against Drosophila genes, about 150-250 ng dsRNA per well (siRNA assay); about 80-120 ng (miRNA assay). Timing: about 5 days (siRNA assay); about 4 days (miRNA assay). Conditions: copper sulfate induction of reporters: 25 µM (siRNA assay); 200 mM stated (miRNA assay), 1-2 days before reading. Measured: 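Dual luciferase assay: Renilla to firefly signal ratio in each well, scaled to the mean ratio of its plate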. Rule for the call: 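First-pass picks had plate-scaled ratios over 1.5 for the siRNA assay, over 1.6 for the miRNA assay, or under 0.6; two distinct dsRNAs had to score alike on retest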.
In all, the deposit lists about 23,000 reagents; shown is an unselected part of those that have a named target and a result. In the full data, 199 (0.86%) were called active. 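Plate-scaled ratios behind the calls are not deposited; printed light signals are raw; many rows marked increased or decreased are still called inactive.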 The numbers tell different reagents against one gene apart. A plus sign joins genes that one reagent is predicted to hit. Not stated in the record: the direction of the score.

Gene | reagent no. | stable siRNA reporter change | miRNA reporter change | stable assay Renilla, run 1 (luminescence) | stable assay firefly, run 1 (luminescence) | activity call
CG30287 | 1 | – | – | 5966 | 4.27e5 | inactive
CG13972 | 1 | – | – | 6422 | 5.50e5 | inactive
CG34428 | 1 | – | – | 5854 | 3.29e5 | inactive
CG31087 | 1 | – | – | 5296 | 2.90e5 | inactive
CG9095 | 1 | – | – | 4143 | 3.42e5 | inactive
CG34026 | 1 | – | – | 6215 | 4.11e5 | inactive
CenG1A | 1 | – | – | 8079 | 4.16e5 | inactive
CenG1A | 2 | – | – | 7375 | 4.08e5 | inactive
CenG1A | 3 | – | – | 8046 | 3.73e5 | inactive
CG4972 | 1 | – | – | 8447 | 4.51e5 | inactive
CG6654 | 1 | – | – | 8699 | 3.88e5 | inactive
CG34289 | 1 | – | – | 6674 | 5.58e5 | inactive
CG1394 | 1 | – | – | 4184 | 2.53e5 | inactive
CG6470 | 1 | – | – | 8594 | 3.74e5 | inactive
CG42340 | 1 | – | – | 5552 | 3.55e5 | inactive
CG42340 | 2 | – | – | 5316 | 3.05e5 | inactive
CG42340 | 3 | – | – | 4675 | 2.56e5 | inactive
CG42340 | 4 | – | – | 9333 | 4.68e5 | inactive
Cngl | 1 | – | – | 6755 | 6.53e5 | inactive
mRF1 | 1 | – | – | 13680 | 8.89e5 | inactive
Samuel | 1 | – | – | 6867 | 2.68e5 | inactive
Samuel | 2 | – | – | 6754 | 2.87e5 | inactive
Samuel | 3 | – | – | 6158 | 3.81e5 | inactive
Samuel | 4 | – | – | 8615 | 3.88e5 | inactive
Samuel | 5 | – | – | 4220 | 3.05e5 | inactive
CG32971 | 1 | – | – | 5124 | 2.90e5 | inactive
tipE | 1 | – | – | 7547 | 3.46e5 | inactive
CG5906 | 1 | – | – | 6350 | 3.98e5 | inactive
ZnT77C | 1 | – | – | 7495 | 3.96e5 | inactive
ZnT77C | 2 | – | – | 7744 | 3.69e5 | inactive
Gr36a | 1 | – | – | 4511 | 5.25e5 | inactive
CG10845 | 1 | – | – | 6814 | 4.00e5 | inactive
Tap42 | 1 | – | – | 7180 | 4.16e5 | inactive
maf-S | 1 | – | – | 6955 | 4.37e5 | inactive
CG15553 | 1 | – | – | 6948 | 5.60e5 | inactive
Scgalpha | 1 | – | – | 7673 | 4.55e5 | inactive
Acp98AB (retired record) | 1 | – | – | 8765 | 8.50e5 | inactive
CG8461 | 1 | – | – | 8864 | 6.62e5 | inactive
Rnp4F | 1 | – | – | 8790 | 6.79e5 | inactive
Taf4 | 1 | – | – | 7078 | 4.06e5 | inactive
Gyg | 1 | – | – | 4607 | 3.78e5 | inactive
Gyg | 2 | – | – | 6196 | 4.42e5 | inactive
CG13488 | 1 | – | – | 6959 | 4.78e5 | inactive
CG31050 | 1 | – | – | 4839 | 4.10e5 | inactive
betaggt-I | 1 | – | – | 7688 | 5.08e5 | inactive
CG16868 | 1 | – | – | 9159 | 3.37e5 | inactive
Rdh1 | 1 | – | – | 8146 | 6.35e5 | inactive
CG18294 | 1 | – | – | 7211 | 4.22e5 | inactive
CG42525 | 1 | – | – | 4603 | 3.93e5 | inactive
AMPKalpha | 1 | – | – | 9703 | 4.29e5 | inactive
AMPKalpha | 2 | – | reporter ratio raised past the hit cutoff | – | – | active
CG18682 (retired record) | 1 | – | – | 6802 | 4.20e5 | inactive
CG18682 (retired record) | 2 | – | – | 6179 | 4.61e5 | inactive
shams | 1 | – | – | 5718 | 3.54e5 | inactive
ssh | 1 | – | – | 7826 | 3.15e5 | inactive
ssh | 2 | – | reporter ratio raised past the hit cutoff | – | – | inactive
Cpr78E | 1 | – | – | 7979 | 4.09e5 | inactive
CG9922 | 1 | – | – | 6410 | 2.91e5 | inactive
FMRFa | 1 | – | – | 7354 | 4.16e5 | inactive
atos | 1 | – | – | 5647 | 2.91e5 | inactive
Fbw5 | 1 | – | – | 6126 | 3.59e5 | inactive
CG13999 | 1 | – | – | 9126 | 5.70e5 | inactive
CG17974 | 1 | – | – | 6650 | 4.54e5 | inactive
CG31482 | 1 | – | – | 7522 | 5.37e5 | inactive
Mcad | 1 | – | – | 8067 | 4.56e5 | inactive
CG4911 | 1 | – | – | 9124 | 5.14e5 | inactive
Ctf4 | 1 | – | – | 8459 | 4.51e5 | inactive
Hers + amn | 1 | – | – | 6171 | 4.44e5 | inactive
CG32176 | 1 | – | – | 7322 | 5.50e5 | inactive
CG32176 | 2 | – | – | 8678 | 3.86e5 | inactive
dpr13 | 1 | – | – | 5224 | 4.12e5 | inactive
dpr13 | 2 | – | – | 5835 | 3.93e5 | inactive
CG6431 | 1 | – | – | 6567 | 4.25e5 | inactive
EbpII | 1 | – | – | 6726 | 1.15e6 | inactive
EbpII | 2 | – | – | 3283 | 3.58e5 | inactive
Cftr | 1 | – | – | 10801 | 4.04e5 | inactive
NfI | 1 | – | – | 6268 | 3.94e5 | inactive
CG15141 | 1 | – | – | 28235 | 1.78e6 | inactive
CG15141 | 2 | – | – | 8989 | 5.63e5 | inactive
CG14572 | 1 | – | – | 6054 | 3.47e5 | inactive
mRpL12 | 1 | – | – | 7727 | 4.07e5 | inactive
kl-3 (retired record) | 1 | reporter ratio raised past the hit cutoff | – | 4047 | 1.59e5 | inactive
kl-3 (retired record) | 2 | – | – | 5382 | 3.78e5 | inactive
kl-3 (retired record) | 3 | – | – | 4187 | 3.71e5 | inactive

10 entries from above, arranged by “stable assay Renilla, run 1 (luminescence)”, lowest first:
Gene | reagent no. | stable siRNA reporter change | miRNA reporter change | stable assay Renilla, run 1 (luminescence) | stable assay firefly, run 1 (luminescence) | activity call
CG1394 | 1 | – | – | 4184 | 2.53e5 | inactive
CG42340 | 3 | – | – | 4675 | 2.56e5 | inactive
CG42340 | 2 | – | – | 5316 | 3.05e5 | inactive
CG42340 | 1 | – | – | 5552 | 3.55e5 | inactive
CG34289 | 1 | – | – | 6674 | 5.58e5 | inactive
CenG1A | 2 | – | – | 7375 | 4.08e5 | inactive
CenG1A | 3 | – | – | 8046 | 3.73e5 | inactive
CG4972 | 1 | – | – | 8447 | 4.51e5 | inactive
CG6470 | 1 | – | – | 8594 | 3.74e5 | inactive
CG6654 | 1 | – | – | 8699 | 3.88e5 | inactive
